Results taken from publication PMC3185054.
Numbering of substitutions follows the chain as printed. In names and notes the source's numbering stands. These are yes or no findings as the source states them, for the method shown. In cells and extracts the contact can be indirect. Some results given as binding are weak or reduced against the parent protein; the word gives no strength. Tags and fused reporters may be left off the sequences shown. One block for each binder: values may come before it.

How the values were obtained:
[1] = biological target: T1, ABCG2 (breast cancer resistance protein), wild type, tagged N-terminally with fragments of venus YFP (human), Q9UNQ0; experiment: split reporter; venus YFP BiFC in HEK293T cells transfected in 96-well plates, live cells imaged 48 hours after transfection on an ImageXpress Micro system; percentage of BiFC positive cells and mean BiFC intensity by automated image analysis; details: remark: other sources report otherwise
T1 chain: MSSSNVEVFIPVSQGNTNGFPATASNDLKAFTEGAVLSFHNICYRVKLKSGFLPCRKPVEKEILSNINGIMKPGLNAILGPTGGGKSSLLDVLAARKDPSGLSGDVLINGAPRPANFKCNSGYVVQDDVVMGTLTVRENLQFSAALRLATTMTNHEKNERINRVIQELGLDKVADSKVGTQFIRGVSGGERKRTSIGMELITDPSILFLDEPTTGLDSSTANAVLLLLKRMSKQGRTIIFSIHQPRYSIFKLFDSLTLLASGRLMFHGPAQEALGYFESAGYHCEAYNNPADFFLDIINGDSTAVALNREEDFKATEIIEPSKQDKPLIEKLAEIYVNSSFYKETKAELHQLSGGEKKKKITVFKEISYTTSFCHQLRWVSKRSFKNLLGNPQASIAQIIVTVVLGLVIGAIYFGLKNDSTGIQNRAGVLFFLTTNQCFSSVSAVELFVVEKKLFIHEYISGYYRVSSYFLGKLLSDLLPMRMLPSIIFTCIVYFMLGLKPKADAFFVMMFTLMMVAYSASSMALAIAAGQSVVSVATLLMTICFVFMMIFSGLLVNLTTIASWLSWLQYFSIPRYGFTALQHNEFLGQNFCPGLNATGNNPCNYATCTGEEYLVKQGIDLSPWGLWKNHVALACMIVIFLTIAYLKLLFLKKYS

[2] = biological target: T1, ABCG2 (breast cancer resistance …); experiment: split reporter; venus YFP BiFC in transiently co-transfected HEK293T cells at 37°C; read by flow cytometry, live cell imaging and fluorescence microscopy of fixed cells; single transfections as negative controls; details: remark: other sources report otherwise
[3] = biological target: ABCG2 E211Q (Walker-B glutamate mutant), tagged N-terminally with fragments of venus YFP (human) (UniProt Q9UNQ0); experiment: split reporter; venus YFP BiFC in HEK293T cells transfected in 96-well plates, live cells imaged 48 hours after transfection on an ImageXpress Micro system; percentage of BiFC positive cells and mean BiFC intensity by automated image analysis
[4] = biological target: ABCG2 C603A, tagged N-terminally with fragments of venus YFP (human) (UniProt Q9UNQ0); experiment: as above

binding [1]: binds | binding [2]: binds
B1: ABCG2 (breast cancer resistance protein), wild type, tagged N-terminally with fragments of venus YFP, Q9UNQ0 1-655 (protein)
chain: T1 chain

binding [3]: binds
B2: ABCG2 E211Q (Walker-B glutamate mutant), tagged N-terminally with fragments of venus YFP (protein, UniProt Q9UNQ0 1-655)
chain: T1 chain with E211Q

binding [4]: binds
B3: ABCG2 C603A, tagged N-terminally with fragments of venus YFP (protein, UniProt Q9UNQ0 1-655)
chain: T1 chain with C603A
